About 13,000 (3.2%) of roughly 400,000 compounds were called active. The inconclusive results got no clear call from the source; some entries with a clear call stand among them for comparison. Calls come from the whole dose curve; as a rule, active = well fitted cell-killing curve with a large enough effect; inconclusive = small, poorly fitted or top-dose-only effect, or effect the other way; inactive = flat fitted curve, though single readings scatter. A potency beside an inconclusive call is a rough fit, not a confirmed value.
assay: qHTS assay for MDR1-selective chemotherapeutics: Primary screen using the drug-selected MDR subline cells KB-V1; details: KB-V1 MDR cells viability, CellTiter-Glo, 72 h; activity change, negative = cytotoxicity: at 46.1 µM (top of the series); note: nearly all actives have a fitted effect of over 60% in size
Summary of the method: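 KB-V1, DMEM (no phenol red) + 10% FBS; cpd pin-transferred, titration series; 72 h, 37 degrees C; CellTiter-Glo, luminescence. Data normalized, curve-fit.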
% is set by controls: 0 for no effect and ±100 for the full control effect; potency is the fitted concentration of half-maximal effect.

| Structure (SMILES) | Potency | activity change, negative = cytotoxicity |
| --- | --- | --- |
| CC1CCN(CCOc2ccc(OCc3ccccc3)cc2)CC1 | active: 14.6 µM | – |
| Cc1nnc2ccc(-c3cccc(NC(=O)Cc4cccs4)c3)nn12 | inconclusive: 0.517 µM [rising, full curve, poor fit] | – |
| Cc1ccc2nc(N(CCCN(C)C)C(=O)c3sc4ccccc4c3Cl)sc2c1 | inconclusive: 25.9 µM [cytotoxic, partial curve, poor fit] | – |
| COc1ccc(C2SCC(=O)N2c2nc3ccccc3s2)cc1 (centres undefined) | inactive | – |
| COc1cccc(NC(=O)CN2CCCN(S(=O)(=O)c3ccc(Br)cc3)CC2)c1 | inactive | – |
| CCc1ccc(OC(=O)Cc2ccc(OC)c(S(=O)(=O)N3CCOCC3)c2)cc1 | inconclusive: 29.1 µM [rising, single point] | – |
| Cc1ccc2[nH]c3c(c2c1)CCC3=O | inconclusive: 2.59 µM [cytotoxic, partial curve, poor fit] | – |
| O=C(CN1C(=O)COc2ccccc21)NCC1CCCO1 (centres undefined) | – | inconclusive: 48.6% |
| O=C(NC1CCCN(Cc2ccc(Cl)cc2)C1)c1c(F)ccc(F)c1F (centres undefined) | inconclusive: 8.2 µM [cytotoxic, partial curve] | – |
| O[C@@H]1Cc2ccccc2O[C@H]1c1ccccc1 | inconclusive: 29.1 µM [rising, single point] | – |
| O=C(NCCSCc1c(F)cccc1Cl)C1CCN(S(=O)(=O)Cc2ccccc2)CC1 | inactive | – |
| COC(=O)C1=C(Nc2ccc(C)cc2)C=C(C)C(C(=O)OC)C1c1ccc(F)cc1 (centres undefined) | inconclusive: 22.4 µM [cytotoxic, partial curve, poor fit] | – |
| CSc1ccc(CN2CCC(n3nccc3NC(=O)c3ccccc3C)CC2)cc1 | inconclusive: 5.8 µM [cytotoxic, partial curve, poor fit] | – |
| CC1CCc2c(sc3nc(CSc4ncn[nH]4)[nH]c(=O)c23)C1 (centres undefined) | inconclusive: 20.6 µM [cytotoxic, single point] | – |
| O=S1(=O)C=C(SCc2cccc(Cl)c2)Nc2ccccc21 | inconclusive: 29.1 µM [cytotoxic, single point] | – |
| CCOC(=O)C1(Cc2ccccc2)C(=O)N(CCCN(C)C)c2ccccc21 (centres undefined) | inconclusive: 4.61 µM [cytotoxic, partial curve, poor fit] | – |
| COc1cc(OC)cc(-c2sc3ccc(OC)cc3c2-c2ccc(OCCN3CCCCC3)cc2)c1 | inactive | – |
| CCSc1nnc(NC(=O)c2ccc(S(=O)(=O)N(C)C)cc2)s1 | inactive | – |
| CC(C(=O)NCc1ccc(F)cc1)n1ccc2cc(S(=O)(=O)N3CCCC3)ccc21 (centres undefined) | inconclusive: 23.1 µM [cytotoxic, single point] | – |

Looked up above.
Entry of `COc1ccc(C2SCC(=O)N2c2nc3ccccc3s2)cc1` (centres undefined) under Potency: inactive
Entry of `Cc1ccc2[nH]c3c(c2c1)CCC3=O` under Potency: inconclusive: 2.59 µM [cytotoxic, partial curve, poor fit]

From PubChem BioAssay AID1347076 (National Center for Advancing Translational Sciences (NCATS), 2019)
